These are yes or no findings as the source states them, for the method shown. Some results given as binding are weak or reduced against the parent protein; the word gives no strength.
Molecular target: Dectin-2 expressed with FcRγ chain on B3Z NFAT-lacZ reporter cells (UniProt Q9JKF4)
Assay: told in the discussion; rests on NFAT-lacZ Dectin-2 reporter cells

Chains of the proteins cited; added tags and fusions are not shown. Lines headed by an entry give the natural chain unless they say otherwise; changes in a name come on top.
UniProt Q9JKF4: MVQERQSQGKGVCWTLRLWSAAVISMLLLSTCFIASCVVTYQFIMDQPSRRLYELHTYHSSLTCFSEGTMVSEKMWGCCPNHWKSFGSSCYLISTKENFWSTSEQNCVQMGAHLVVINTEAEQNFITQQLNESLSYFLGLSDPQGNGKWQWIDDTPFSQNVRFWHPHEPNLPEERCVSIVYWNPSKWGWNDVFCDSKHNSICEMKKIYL

For “Pichia-expressed Aspergillus Eng2 (from UniProt B0XTU6 22-630) (ligand)”, the binding was “binds”.

From patent US20210205445A1
